Reference: patent US20240279641A1, “Structural Neuroplasticity Enhancer Screen” (Northwestern University, priority 2021, published 2024)
At least one compound was matched to its structure with a doubt left.

How the values were obtained:
Format in all cases: cell-based, mouse
HT22 cells [1] = assay: Western blot of HT22 cell lysates for the NanoLuc construct (anti-RFP); settings: anti-RFP antibody, qualitative
[2] = system: primary mixed cortical neuron cultures; assay: Confocal imaging of AS.mScarlet.NanoLuc expression in primary neurons; settings: DIV 14, 16 hr after 1 μM forskolin vs 0.1% DMSO vehicle control
HT22 cells [3] = assay: Firefly luciferase structural plasticity reporter constructs in transfected HT22 cells; settings: HT22 neuronal cell line, firefly luciferase reporters (Arc, cFos, amplification cassette)
[4] = system: primary mixed cortical neuron cultures; assay: AS.mScarlet.NanoLuc luciferase reporter readout in primary mixed cortical neuron cultures, 384-well; settings: mature cortical neuron cultures, DIV 21, 16 hr post stimulation
[5] = system: primary hippocampal and cortical neurons; assay: SARE-ArcMin-luciferase-PSD95-mVenus luciferase assay in primary neuronal cultures, 96-well; settings: hippocampal vs cortical primary cultures, 96-well plate
Experimental: Animals were handled according to protocols approved by the Northwestern University Animal Care and Use Committee. Cortical neurons were harvested from mouse embryos euthanized at embryonic day 18 and plated in poly-D-lysine coated plates. Embryonic brains were dissected in ice-cold dissection media (Hank's balance salt solution HBSS, 2% penicillin-streptomycin, 20 mM HEPES). Meninges were removed from each brain and cortices were dissected out. The cortices were chopped into small pieces using a microscissors and pooled in 5 mL dissection media containing 0.25% trypsin and 0.1% DNasel and trypsinised at 37° ° C. for 20-25 min. Cortices were washed twice with warm dissection media, and once with warm plating medium (MEM, supplemented with 10% heat-inactivated horse serum, 0.6% glucose, 1 mM Na pyruvate, 1% Glutamax, 1% penicillin-streptomycin) for 5 min each. Tissues were titurated in 3 mL fresh plating medium with unpolished and, subsequently, polished glass Pasteur pipettes. 1 k, 80 k, 150 k, 2500 k cells were seeded in 384-well, 12-well, 6-well plates, 10-cm dishes, respectively. […]
Luciferase substrate systems were prepared according to the Manufacturer's instructions. […] Plates were read by Biotek Syngery Neo2 plate reader. […]

Which results are given for C=C[C@@]1(C)CC(=O)[C@]2(O)[C@@]3(C)[C@@H](O)CCC(C)(C)[C@@H]3[C@H](O)[C@H](OC(C)=O)[C@@]2(C)O1 [forskolin]?
NanoLuc expression by western blot vs vehicle control (HT22 cells [1]): cannot be distinguished from vehicle control; AS.mScarlet.NanoLuc expression in confocal images [2]: increased; luciferase reporter response (HT22 cells [3]): dose-dependent manner; luciferase reporter readout of AS.mScarlet.NanoLuc expression [4]: robust dose-dependent response; dose-response of luciferase activity, construct (1) [5]: dose-response is cell-type specific
